In series [1] the target is T1, Smad4 MH1 domain (Homo sapiens) (UniProt Q13485).
T1 sequence (looked up): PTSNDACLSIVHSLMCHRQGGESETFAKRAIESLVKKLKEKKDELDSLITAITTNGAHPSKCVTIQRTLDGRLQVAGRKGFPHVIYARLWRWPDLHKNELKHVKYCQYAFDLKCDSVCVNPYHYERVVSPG
Kind of series: ITC. Particulars: ITC: Tris pH 7.0, 20 C; recombinant protein; residues 10-140; protein details: N-terminal His, cleaved (TEV or 3C).

By UniProt entry, the sequences of proteins in these tests, tags left out. Residues count along the entry.
UniProt Q15797, 10-142: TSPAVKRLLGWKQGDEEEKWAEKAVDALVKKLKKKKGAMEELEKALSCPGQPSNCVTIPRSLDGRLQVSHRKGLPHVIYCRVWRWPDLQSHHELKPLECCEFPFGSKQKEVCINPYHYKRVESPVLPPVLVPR
UniProt Q99717, 11-143: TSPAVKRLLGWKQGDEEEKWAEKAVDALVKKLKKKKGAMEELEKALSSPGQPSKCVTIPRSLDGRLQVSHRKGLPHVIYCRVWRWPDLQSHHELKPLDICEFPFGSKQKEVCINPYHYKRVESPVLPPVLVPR
UniProt O15198, 14-144: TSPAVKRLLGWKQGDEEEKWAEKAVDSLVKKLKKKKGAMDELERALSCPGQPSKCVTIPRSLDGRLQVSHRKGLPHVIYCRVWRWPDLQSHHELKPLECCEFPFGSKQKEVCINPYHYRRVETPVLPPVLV

The target in series [2] is T2, Trichoplax Smad4 MH1 domain (Trichoplax adhaerens) (UniProt B3S7S5).
T2 sequence (looked up): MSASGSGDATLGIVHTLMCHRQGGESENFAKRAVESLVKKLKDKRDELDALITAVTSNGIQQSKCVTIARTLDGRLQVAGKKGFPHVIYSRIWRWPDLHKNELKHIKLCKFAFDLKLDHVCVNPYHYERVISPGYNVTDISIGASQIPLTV
Kind of series: X-ray crystallography (2.43 A). Particulars: same GGCGC DNA as human Smad4 complex; recombinant protein; residues 1-151; protein details: N-terminal His-TEV, cleaved.

Series [3] has as its target Smad1 MH1 domain (Homo sapiens) (UniProt Q15797). The experiment in a line: EMSA. Particulars: EMSA: 20 mM Tris pH 7.2, 80 mM NaCl, 2 mM DTT, 7.5 nM Cy5-DNA, 30 min room temperature, gel at 20 C, recombinant protein, residues 10-142, protein details: N-terminal His-TEV, cleaved.
The target of series [4] is Smad5 MH1 domain (Homo sapiens) (UniProt Q99717). Kind of series: EMSA. Particulars: EMSA: 20 mM Tris pH 7.2, 80 mM NaCl, 2 mM DTT, 7.5 nM Cy5-DNA, 30 min room temperature, gel at 20 C, recombinant protein, residues 11-143, protein details: N-terminal His-TEV, cleaved.
The target in series [5] is Smad8/9 MH1 domain (Homo sapiens) (UniProt O15198). The experiment in a line: EMSA. Particulars: EMSA: 20 mM Tris pH 7.2, 80 mM NaCl, 2 mM DTT, 7.5 nM Cy5-DNA, 30 min room temperature, gel at 20 C, recombinant protein, residues 14-144, protein details: N-terminal His-TEV, cleaved. A general note: Mobility shift assays separate free from complexed probe on a gel.
The subject of series [6] is Amphimedon Smad4 MH1 domain (Amphimedon queenslandica). Kind of series: EMSA. Particulars: EMSA: 20 mM Tris pH 7.2, 80 mM NaCl, 2 mM DTT, 7.5 nM Cy5-DNA, 30 min room temperature, gel at 20 C, recombinant protein, protein details: N-terminal His-TEV, cleaved.
The target in series [7] is T2, Trichoplax Smad4 MH1 domain (Trichoplax adhaerens). Kind of series: EMSA. Particulars: EMSA: 20 mM Tris pH 7.2, 80 mM NaCl, 2 mM DTT, 7.5 nM Cy5-DNA, 30 min room temperature, gel at 20 C; recombinant protein; residues 1-151; protein details: N-terminal His-TEV, cleaved; label: 5' Cy5 in EMSA.
For series [8], the target named is T1, Smad4 MH1 domain (Homo sapiens). Kind of series: EMSA. Particulars: EMSA: 20 mM Tris pH 7.2, 80 mM NaCl, 2 mM DTT, 7.5 nM Cy5-DNA, 30 min room temperature, gel at 20 C; recombinant protein; residues 10-140; protein details: N-terminal His, cleaved (TEV or 3C); label: 5' Cy5.

For some assays here: Where a protein sequence is shown, tags need not be part of it. For some assays here: The exact form of at least one protein or probe is not confirmed. For some assays here: At least one verdict was read from the data and is not stated in words by the source.

The source of these data is publication PMC5727232.

“TGCAGGCGCGCCTGCA (double strand) [GGCG / GGCGC-XRAY-Smad3 16mer]”: the Kd in series [1] came out at 160 nM.

Consider “ATGCGGGCGCGCCCGCAT (double strand) [GGCGC-XRAY-Smad4 18mer]”, for which the binding result in series [2] is reported as “binds”.

On to “TGCAGTCTAGACTGCA (double strand) [SBE / GTCT]”, for which the binding result in series [3] (label: 5' Cy5 in EMSA), in series [4] (label: 5' Cy5 in EMSA), in series [5] (label: 5' Cy5 in EMSA), in series [6] (label: 5' Cy5 in EMSA) and in series [7] was “binds” in each case.

“TGTGTCAGACGCTCAGCT (double strand) [CAGAC-DE]”: in series [8], the binding result is listed as “binds”.

Take “TTAAGGCCGGGGCCGCGCCGGGAATT (double strand) [GC1 core]”: the binding result in series [3] (label: 5' Cy5), in series [4] (label: 5' Cy5), in series [5] (label: 5' Cy5), in series [8] and in series [6] (label: 5' Cy5) was “binds” throughout.

In the case of “TGCAGGCGCCTGCA (double strand) [BRE-GGCGCC]”, the binding result in series [3] (label: 5' Cy5), in series [4] (label: 5' Cy5) and in series [5] (label: 5' Cy5) was “binds” in each case.

Take “ATTAGGCCGCCCGCCCAGCA (double strand) [GC2 core]”: the binding result in series [8] is reported as “binds”.

One may read the Kd as a measure of binding affinity in units of concentration.
